Results on three substances are retold here after paper PMC2693666.

Sequences of proteins named here, by UniProt entry; tags and fusion partners are left off. Residues count along the entry.
UniProt P02787, residues 20-698: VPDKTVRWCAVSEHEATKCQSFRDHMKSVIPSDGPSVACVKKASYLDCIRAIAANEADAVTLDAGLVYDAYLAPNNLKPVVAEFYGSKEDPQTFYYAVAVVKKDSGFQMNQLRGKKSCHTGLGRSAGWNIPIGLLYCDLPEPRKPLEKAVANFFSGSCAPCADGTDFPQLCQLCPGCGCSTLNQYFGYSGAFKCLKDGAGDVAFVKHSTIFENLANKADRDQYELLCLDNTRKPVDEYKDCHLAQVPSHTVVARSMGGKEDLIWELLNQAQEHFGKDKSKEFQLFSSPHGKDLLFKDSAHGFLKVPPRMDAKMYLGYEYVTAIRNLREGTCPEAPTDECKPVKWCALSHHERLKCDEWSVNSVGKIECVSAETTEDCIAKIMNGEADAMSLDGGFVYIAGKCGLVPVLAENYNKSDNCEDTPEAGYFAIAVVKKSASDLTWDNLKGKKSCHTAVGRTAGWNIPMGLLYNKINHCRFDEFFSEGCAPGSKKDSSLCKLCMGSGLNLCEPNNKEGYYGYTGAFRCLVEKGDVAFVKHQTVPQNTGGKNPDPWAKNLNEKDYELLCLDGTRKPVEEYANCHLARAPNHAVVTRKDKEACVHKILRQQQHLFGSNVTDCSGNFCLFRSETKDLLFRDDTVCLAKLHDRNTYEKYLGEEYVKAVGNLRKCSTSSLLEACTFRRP
UniProt P07724, residues 25-608: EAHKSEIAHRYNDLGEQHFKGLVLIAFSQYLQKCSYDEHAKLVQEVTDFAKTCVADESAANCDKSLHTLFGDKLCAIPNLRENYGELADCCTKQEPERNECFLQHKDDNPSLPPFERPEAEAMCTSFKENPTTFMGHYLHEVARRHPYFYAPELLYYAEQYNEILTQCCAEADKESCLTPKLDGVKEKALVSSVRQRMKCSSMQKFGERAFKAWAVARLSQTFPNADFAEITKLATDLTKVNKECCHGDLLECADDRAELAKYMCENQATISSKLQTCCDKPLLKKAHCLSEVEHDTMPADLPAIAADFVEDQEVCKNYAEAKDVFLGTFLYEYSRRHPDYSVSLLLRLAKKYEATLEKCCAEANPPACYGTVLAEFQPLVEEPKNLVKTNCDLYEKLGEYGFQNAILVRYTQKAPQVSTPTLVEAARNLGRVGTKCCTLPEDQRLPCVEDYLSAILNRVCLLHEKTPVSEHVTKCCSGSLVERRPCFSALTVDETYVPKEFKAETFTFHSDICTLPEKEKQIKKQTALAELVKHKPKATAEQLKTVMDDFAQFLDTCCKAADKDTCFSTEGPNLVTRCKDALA
UniProt Q9QUG3, residues 26-155: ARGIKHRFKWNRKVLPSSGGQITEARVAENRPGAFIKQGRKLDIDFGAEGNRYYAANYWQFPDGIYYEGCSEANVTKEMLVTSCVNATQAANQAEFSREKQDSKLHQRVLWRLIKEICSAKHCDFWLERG

In assay [1] the target is T1, rat alpha-1-inhibitor-3 (α1I3), from rat cerebellum (rat (endogenous in Sprague-Dawley rat cerebellum)) (UniProt P14046).
T1 sequence: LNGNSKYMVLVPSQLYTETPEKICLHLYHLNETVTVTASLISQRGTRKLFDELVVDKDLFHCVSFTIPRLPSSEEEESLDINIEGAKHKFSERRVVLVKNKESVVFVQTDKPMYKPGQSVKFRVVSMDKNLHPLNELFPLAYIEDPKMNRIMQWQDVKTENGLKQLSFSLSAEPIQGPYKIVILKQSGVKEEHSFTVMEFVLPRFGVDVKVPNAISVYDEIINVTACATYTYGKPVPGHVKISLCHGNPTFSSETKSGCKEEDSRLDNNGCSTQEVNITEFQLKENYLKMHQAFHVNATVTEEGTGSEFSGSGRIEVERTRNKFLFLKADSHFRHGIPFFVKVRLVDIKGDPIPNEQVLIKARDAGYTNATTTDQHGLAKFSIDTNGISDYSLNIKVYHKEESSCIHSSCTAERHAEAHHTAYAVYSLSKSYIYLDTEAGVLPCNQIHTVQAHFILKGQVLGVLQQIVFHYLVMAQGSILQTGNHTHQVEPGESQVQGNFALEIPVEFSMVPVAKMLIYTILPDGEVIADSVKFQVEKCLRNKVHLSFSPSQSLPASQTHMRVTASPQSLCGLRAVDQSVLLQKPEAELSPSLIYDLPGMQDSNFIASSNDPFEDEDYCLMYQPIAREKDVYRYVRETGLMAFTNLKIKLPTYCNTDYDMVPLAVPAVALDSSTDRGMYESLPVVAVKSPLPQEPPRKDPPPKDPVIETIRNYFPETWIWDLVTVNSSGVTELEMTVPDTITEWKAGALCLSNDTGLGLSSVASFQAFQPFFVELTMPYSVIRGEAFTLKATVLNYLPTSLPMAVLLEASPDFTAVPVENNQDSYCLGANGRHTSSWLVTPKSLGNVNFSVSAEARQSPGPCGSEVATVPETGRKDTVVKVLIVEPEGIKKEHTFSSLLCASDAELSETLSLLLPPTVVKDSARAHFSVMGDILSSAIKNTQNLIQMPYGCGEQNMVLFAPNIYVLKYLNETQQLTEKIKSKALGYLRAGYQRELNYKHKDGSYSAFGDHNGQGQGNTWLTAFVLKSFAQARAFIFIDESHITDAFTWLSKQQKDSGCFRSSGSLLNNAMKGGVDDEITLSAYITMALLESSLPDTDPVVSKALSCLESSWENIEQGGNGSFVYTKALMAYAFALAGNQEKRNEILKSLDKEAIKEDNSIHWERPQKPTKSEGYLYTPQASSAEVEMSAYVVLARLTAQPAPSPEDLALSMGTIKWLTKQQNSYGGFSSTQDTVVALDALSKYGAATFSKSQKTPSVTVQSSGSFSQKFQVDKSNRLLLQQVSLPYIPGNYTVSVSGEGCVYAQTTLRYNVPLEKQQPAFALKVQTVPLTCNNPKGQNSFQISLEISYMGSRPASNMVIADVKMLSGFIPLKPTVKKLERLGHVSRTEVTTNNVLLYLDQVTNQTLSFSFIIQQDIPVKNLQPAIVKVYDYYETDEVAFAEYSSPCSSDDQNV
Put plainly: far-Western, overlay or dot blot.

Assay [2] addresses T2, rat alpha-1-inhibitor-3 (α1I3), native form, purified (rat) (UniProt P14046).
T2 sequence: T1 sequence
Put plainly: ELISA; only the target purified. In general terms: In an ELISA, binding on a coated surface is turned into a signal by an enzyme label.

The target in assay [3] is T3, rat alpha-1-inhibitor-3 (α1I3), methylamine-activated (FAST) form (rat) (UniProt P14046).
T3 sequence (chain, methylamine-activated): T1 sequence
Description: ELISA; only the target purified.

Assay [4] deals with T4, alpha-2-macroglobulin (α2M), activated (fast) form (UniProt P01023).
T4 sequence (chain, activated form (fast)): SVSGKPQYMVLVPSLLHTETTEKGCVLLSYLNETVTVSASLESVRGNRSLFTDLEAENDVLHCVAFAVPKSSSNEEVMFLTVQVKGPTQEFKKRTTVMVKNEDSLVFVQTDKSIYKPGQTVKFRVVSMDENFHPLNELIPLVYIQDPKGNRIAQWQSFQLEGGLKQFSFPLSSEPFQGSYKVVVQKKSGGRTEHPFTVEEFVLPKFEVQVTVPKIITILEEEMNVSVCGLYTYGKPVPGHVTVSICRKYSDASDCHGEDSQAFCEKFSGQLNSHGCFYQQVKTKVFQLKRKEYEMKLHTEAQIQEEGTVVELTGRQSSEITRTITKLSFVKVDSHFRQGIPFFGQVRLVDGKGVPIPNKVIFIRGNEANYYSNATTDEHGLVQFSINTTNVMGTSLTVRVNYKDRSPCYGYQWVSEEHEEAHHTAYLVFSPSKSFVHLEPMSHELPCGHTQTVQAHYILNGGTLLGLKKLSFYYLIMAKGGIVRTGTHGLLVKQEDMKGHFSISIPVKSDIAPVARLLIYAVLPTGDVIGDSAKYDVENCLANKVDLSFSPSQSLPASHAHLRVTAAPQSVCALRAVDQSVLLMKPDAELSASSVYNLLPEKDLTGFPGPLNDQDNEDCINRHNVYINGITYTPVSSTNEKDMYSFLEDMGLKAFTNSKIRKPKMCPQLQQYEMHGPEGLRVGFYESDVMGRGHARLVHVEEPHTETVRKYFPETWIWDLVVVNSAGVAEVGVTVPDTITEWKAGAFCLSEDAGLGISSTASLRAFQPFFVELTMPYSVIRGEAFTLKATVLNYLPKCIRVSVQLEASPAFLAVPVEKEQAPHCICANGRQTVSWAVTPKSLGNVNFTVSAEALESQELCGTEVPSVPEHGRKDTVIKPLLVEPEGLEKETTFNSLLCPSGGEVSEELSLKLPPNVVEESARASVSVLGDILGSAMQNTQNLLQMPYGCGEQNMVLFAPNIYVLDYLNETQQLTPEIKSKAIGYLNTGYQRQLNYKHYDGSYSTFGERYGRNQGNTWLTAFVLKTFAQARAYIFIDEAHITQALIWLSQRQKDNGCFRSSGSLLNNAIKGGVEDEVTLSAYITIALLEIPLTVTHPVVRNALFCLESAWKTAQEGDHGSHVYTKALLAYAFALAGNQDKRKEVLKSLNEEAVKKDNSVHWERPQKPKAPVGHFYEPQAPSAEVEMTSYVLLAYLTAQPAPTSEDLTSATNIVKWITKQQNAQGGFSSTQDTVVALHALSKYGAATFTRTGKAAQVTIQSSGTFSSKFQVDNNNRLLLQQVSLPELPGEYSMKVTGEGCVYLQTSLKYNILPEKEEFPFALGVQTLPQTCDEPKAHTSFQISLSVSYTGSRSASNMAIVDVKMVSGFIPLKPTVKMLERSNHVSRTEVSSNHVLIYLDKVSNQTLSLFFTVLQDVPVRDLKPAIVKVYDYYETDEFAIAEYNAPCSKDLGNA
Put plainly: ELISA.

In assay [5] the target is T5, alpha-2-macroglobulin (α2M), native form (UniProt P01023).
T5 sequence: T4 sequence (chain, activated form (fast))
Description: ELISA.

Assay [6] deals with T4, alpha-2-macroglobulin (α2M), activated (fast) form. Description: ELISA; equimolar α1I3 and α2M, native or activated, coated onto plates and incubated with recDpl; also titration of coated α2M from 25 ng to 1.6 µg/well with recDpl 1.0 µg/well; rabbit polyclonal anti-MoDpl, room temperature; both purified.
The target of assay [7] is T5, alpha-2-macroglobulin (α2M), native form. The assay is described as above.
The target in assay [8] is T2, rat alpha-1-inhibitor-3 (α1I3), native form, purified (rat). Described as above.
For assay [9], the target named is T3, rat alpha-1-inhibitor-3 (α1I3), methylamine-activated (FAST) form (rat). The description is as above.
Another assay addresses apo-transferrin (UniProt P02787). Put plainly: ELISA; specificity controls with recDpl, three independent experiments, data not shown; both purified.
For the next assay, the target named is mouse albumin (mouse) (UniProt P07724). The assay is described as above.

These are yes or no findings as the source states them, for the method shown. Some entries that bind do so weakly or less than the wild type.

For the substance “MoDpl-Fc (from UniProt Q9QUG3 26-155) (Fc fusion)”, the binding entry in assay [1], in assay [2] and in [3] was “binds” each time.

For “PrP^C as tested against α2M (construct not told) (from UniProt P04925 23-230)”, the binding result in assay [4] and in [5] was “no binding” in each case.

For the substance “recMoDpl(26–155) (from UniProt Q9QUG3 26-155) (domain or fragment)”, the binding result is listed as “binds” in assay [6]; “binds” in assay [7]; “binds” in assay [8]; “binds” in assay [9]; “no binding” in the assay with apo-transferrin; “no binding” in the assay with mouse albumin (mouse).
